Source: the supplement of paper PMC12823440, “Inhibitors supercharge kinase turnover through native proteolytic circuits” (Nature, 2025)
Structures can show the parent of a compound that is named as a salt. The list shows a part of the results. The calls rarely recur for the same compound in another form.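 Kinases, fused to nanoluciferase, were expressed in K562 cells; luminescence was measured every 4 h from 2 to 18 h as percent of control (DMSO = 100%, positive control = 0%). A time point is decreased if signal falls significantly (2 sigma). Hits were called by the authors by a rule that is not shown; the count of time points alone does not decide it.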

Target: RIPK2 (UniProt O43353)
Assay: number of time points (of 5) at which kinase-Nluc abundance scored as decreased, DMSO-normalised (count); higher = more persistent destabilization
Details: K562; 2-18 h

SMILES	number of time points
C[C@H](Nc1ncnc2[nH]cnc12)c1nc2ccc(F)cc2c(=O)n1-c1ccccc1 [Acalisib] (10 µM)	0
O=C1c2ccccc2C(=O)c2c1cccc2-c1cnn(C2CCNCC2)c1 [PDK4-IN-1 (hydrochloride)] (10 µM)	0
Cc1ccccc1-n1c(Cn2ncc3c(N)ncnc32)nc2cccc(C)c2c1=O (10 µM)	0
Nc1ncnc2c1ncn2[C@@H]1O[C@@H]2COP(O)(=S)O[C@H]2[C@H]1O (stereo partly specified) [Sp-cAMPS (sodium salt)] (10 µM)	0
CN(C)C(=O)c1ccc(Cn2c(C(=O)O)cc3c(Br)cc(Sc4ccc(Cl)c(Cl)c4)cc32)cc1 [Rheb inhibitor NR1] (10 µM)	0
C/C=C(/C)C(=O)O[C@H]1[C@@H]2[C@H](C)C(=O)O[C@@H]2C[C@@H](C)[C@@H]2C=CC(=O)[C@]21C [Brevilin A] (2.5 µM)	0
